According to PubChem BioAssay AID504847 (National Center for Advancing Translational Sciences (NCATS), 2011):
Values joined by “and” are separate entries in the source; they are usually repeats but may differ in a detail not shown here. Equal values may be shown once. About 3,700 (0.93%) of roughly 400,000 compounds were called active. The shares of active, inactive and inconclusive entries below differ from those in the screen. Calls come from the whole dose curve; as a rule, active = well fitted inhibition curve with a large enough effect; inconclusive = small, poorly fitted or top-dose-only effect, or another doubt; inactive = no such curve, though single readings can be large or run the other way. A potency beside an inconclusive call is a rough fit, not a confirmed value.

By UniProt entry, the sequences of proteins in these tests, tags left out.
UniProt P11473, whole entry, looked up: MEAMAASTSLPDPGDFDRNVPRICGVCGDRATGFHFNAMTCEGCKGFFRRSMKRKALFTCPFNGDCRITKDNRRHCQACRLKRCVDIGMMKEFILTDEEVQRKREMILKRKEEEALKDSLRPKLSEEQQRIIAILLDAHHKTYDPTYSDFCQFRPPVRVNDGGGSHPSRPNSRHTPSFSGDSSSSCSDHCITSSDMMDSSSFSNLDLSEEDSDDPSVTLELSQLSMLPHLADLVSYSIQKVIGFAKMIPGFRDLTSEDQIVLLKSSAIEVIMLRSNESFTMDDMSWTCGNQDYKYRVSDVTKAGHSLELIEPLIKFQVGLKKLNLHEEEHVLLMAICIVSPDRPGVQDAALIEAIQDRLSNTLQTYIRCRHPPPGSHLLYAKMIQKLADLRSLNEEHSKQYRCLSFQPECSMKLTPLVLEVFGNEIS

target: Vitamin D3 receptor (Homo sapiens) (UniProt P11473); experiment: Inhibitors of the vitamin D receptor (VDR): qHTS; conditions: VDR-SRC2-3 peptide fluorescence polarization, 2 h; max response, negative = inhibition: active compounds read low
Outline: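 VDR–SRC2-3 interaction, FP format. Cmpds 23 nl via pintool, brief spin, 2 h ambient incubation.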
% is set by controls: 0 for no effect and ±100 for the full control effect; potency is the fitted concentration of half-maximal effect.

Structure (SMILES)	Potency	max response, negative = inhibition
COc1cc(/C=C2\C(=O)N(CCC#N)N=C2C)ccc1OCC(=O)Nc1ccccc1	inconclusive: 56.2 µM [inhibitor, partial curve, poor fit]	
COC(=O)c1ccc2c(c1)NC(=O)C1CCCN21 (stereo not given)	inconclusive: 100 µM [inhibitor, single point]	
Cc1ccc(Cl)cc1-c1ccc(C=Nc2ccc(N3CCOCC3)cc2)o1	inconclusive: 89.1 µM [inhibitor, partial curve, poor fit]	
Cc1cc(NC(=O)CCc2nc3cccnc3n2-c2ccccc2)ccc1Br		inactive: -5.41%
O=C(Cc1ccccc1)Nc1ccccc1Oc1ccccc1	inconclusive: 50.1 µM [inhibitor, partial curve]	
CS(=O)(=O)N1CCC(C(=O)N2CCN(c3ccccc3F)CC2)CC1	inconclusive: 79.4 µM [inhibitor, partial curve, poor fit]	
O=C(CSc1nc2nc3c(cc2c(=O)n1-c1ccccc1)CCCC3)Nc1ccccc1	inconclusive: 89.1 µM [inhibitor, single point]	
CNC(=O)CC1C(=O)N(C)C(=S)N1NC(=O)c1ccccc1 (stereo not given)	inconclusive: 100 µM [inhibitor, single point]	
COC(=O)c1ccccc1Nc1cc(C)nc2nc(C)nn12	inconclusive: 56.2 µM [inhibitor, partial curve, poor fit]	
O=C(C=Cc1cccs1)c1ccc(Cl)s1	active: 39.8 µM	
O=C(CSc1nc2ccccc2nc1N1CCCCC1)Nc1ccc(F)cc1	inconclusive: 100 µM [inhibitor, single point]	
CCCOCc1ccc(O)c2ncccc12		inactive: -1%
CCC(=O)N(CCC(c1ccc(C)cc1)c1ccco1)Cc1ccco1 (stereo not given)	inconclusive: 89.1 µM [inhibitor, single point]	
O=S(=O)(NCCC(c1ccc(F)cc1)c1ccco1)c1ccccc1 (stereo not given)	inconclusive: 44.7 µM [inhibitor, partial curve, poor fit]	
CC(=O)c1ccc(NC(=S)Nc2cccc3cnccc23)cc1	inconclusive: 100 µM [inhibitor, partial curve, poor fit]	
O=C(Nc1ccccc1F)c1nc(S(=O)(=O)Cc2ccccc2F)ncc1Cl	active: 14.1 µM	
O=C(O)c1cc(N2N=C(C(F)(F)F)/C(=C/C=C/c3ccco3)C2=O)ccc1Cl	inconclusive: 20 µM [inhibitor, single point]	
Cc1cccc(N2C(=O)C(O)=C(C(=O)c3cccs3)C2c2cccc(Oc3ccccc3)c2)n1 (stereo not given)	inconclusive: 70.8 µM [inhibitor, partial curve]	
Cc1cccc(N2CCN(C(=O)c3cc(S(=O)(=O)N4CCC(C)CC4)cn3C)CC2)c1C		inactive: 0.548%
CCCCC[C@H](O)/C=C/[C@H]1[C@H](O)CC(=O)[C@@H]1C/C=C\CCCC(=O)O	inconclusive: 44.7 µM [inhibitor, partial curve]	
CC(Nc1oc(-c2ccccc2)nc1-c1ccccc1)c1ccccc1 (stereo not given)	inconclusive: 89.1 µM [inhibitor, single point]	
CSCC[C@H](NC(=O)Cc1c(C)c2cc3c4c(oc3cc2oc1=O)CCCC4)C(=O)O		inactive: -22.5%

Of the compounds above, two contain a thiophene ring, fused or not.
Structure (SMILES)	Potency	max response, negative = inhibition
O=C(C=Cc1cccs1)c1ccc(Cl)s1	active: 39.8 µM	
Cc1cccc(N2C(=O)C(O)=C(C(=O)c3cccs3)C2c2cccc(Oc3ccccc3)c2)n1 (stereo not given)	inconclusive: 70.8 µM [inhibitor, partial curve]	

Structures above with an aryl thioether with sulfur outside any ring, in the order listed:
Structure (SMILES)	Potency	max response, negative = inhibition
O=C(CSc1nc2nc3c(cc2c(=O)n1-c1ccccc1)CCCC3)Nc1ccccc1	inconclusive: 89.1 µM [inhibitor, single point]	
O=C(CSc1nc2ccccc2nc1N1CCCCC1)Nc1ccc(F)cc1	inconclusive: 100 µM [inhibitor, single point]	

(listing goes on)

Structure (SMILES)	Potency	max response, negative = inhibition
CCOc1ccc2oc(C(=O)NCc3ccccc3CN3CCCC3)c(C)c2c1	inconclusive: 89.1 µM [inhibitor, single point]	
COc1cccc(CSc2nc3cc4c(cc3cc2C)OCCO4)c1		inactive: -2.7%
COc1ccc(NC(=O)N2CCC(NC(=O)c3ccco3)CC2)cc1	inconclusive: 70.8 µM [inhibitor, single point]	
CC(C)n1cc(C#N)c(N)n1	inconclusive: 79.4 µM [inhibitor, single point]	
Cc1ccc(-c2nn(-c3ccccc3)cc2CN(Cc2ccccc2)C(=O)CCC(=O)O)o1	inconclusive: 56.2 µM [inhibitor, partial curve, poor fit]	
COc1ccc(C2=Nn3c(nnc3-c3ccccc3C(F)(F)F)SC2)cc1OC1CCOC1 (stereo not given)	inconclusive: 50.1 µM [inhibitor, partial curve, poor fit]	
CC(C)CCC[C@@H](C)[C@H]1CC[C@H]2[C@@H]3CC=C4CC(O)CC[C@]4(C)[C@H]3CC[C@]12C (stereo not given in full)	inconclusive: 35.5 µM [inhibitor, full curve]	
C=CCC(C)(NCc1ccccc1)c1ccccc1 (stereo not given)	inconclusive: 0.631 µM [inhibitor, full curve, poor fit]	
CCN[C@@H]1CN(CCCOC)S(=O)(=O)c2sc(S(N)(=O)=O)cc21		inactive: 1.1%
Cc1ccc(Cn2nnc3c(=O)n(CC(=O)N4CCN(c5ccccc5)CC4)cnc32)cc1		inactive: -3.69%
CCOC(=O)/C=C/C(=O)OCC(=O)Nc1cccc(Cl)c1Cl	inconclusive: 17.8 µM [inhibitor, partial curve, poor fit]	
COc1ccc(CCNC(=O)CN(c2ccccc2OC)S(=O)(=O)c2ccc(C)cc2)cc1		inactive: -13.2% and inactive: -2.18%
COC(=O)c1ccc(NC(=O)CSc2nc3ccc(OC)cc3[nH]2)cc1		inactive: -11.4%
N=C1/C(=C\c2ccc(OC(=O)c3ccco3)cc2)C(=O)N=C2SC(N3CCCCC3)=NN12	inconclusive: 89.1 µM [inhibitor, single point]	
OC(COc1ccc(Cl)cc1Cl)Cn1ccnc1 (stereo not given)	inconclusive: 39.8 µM [inhibitor, partial curve]	
CC1CCCN(C(=O)c2cc3c(=O)n4ccccc4nc3s2)C1 (stereo not given)	inconclusive: 79.4 µM [inhibitor, partial curve, poor fit]	
Cc1ccccc1CNC(=O)C(=O)NCCC1CCCCN1S(=O)(=O)c1cccs1 (stereo not given)		inactive: -28.3%
CN(Cc1ccco1)c1ncncc1-c1ccoc1	inconclusive: 50.1 µM [inhibitor, partial curve]	
CCc1ccc(NC2=CC(=O)C(=O)c3ccccc32)cc1	inconclusive: 89.1 µM [inhibitor, single point]	
CCN(CC)c1ccc(NC(=O)c2cnccn2)cc1S(=O)(=O)Nc1ccc(OC)cc1	inconclusive: 100 µM [inhibitor, single point]	
Cc1cnc(CNc2ncncc2-c2ccc(N(C)C)cc2)cn1	inconclusive: 50.1 µM [inhibitor, partial curve, poor fit]	
O=C(CN(Cc1ccccc1)C(=O)CCl)c1cccc(Br)c1	inconclusive: 100 µM [inhibitor, single point]	

Structure (SMILES)	Potency	max response, negative = inhibition
O=C(NC1CC1)c1ccc(NC(=O)C2CCC2)cc1	active: 79.4 µM	
COc1cc(C=C2C(=O)c3ccccc3C2=O)cc(OC)c1	inconclusive: 89.1 µM [inhibitor, single point]	
COc1cc(/C=C/C(=O)OCC(=O)NC2CC2)cc(S(=O)(=O)N2CCc3ccccc32)c1OC		inactive: -6.08%
CC1CC2=C(NC(=S)NC2c2ccc(F)cc2)/C(=C/c2ccc(F)cc2)C1 (stereo not given)	inconclusive: 56.2 µM [inhibitor, partial curve, poor fit]	
CCOc1ccc2nc(SCC(=O)NCc3ccc(OC)c(OC)c3)[nH]c2c1	inconclusive: 39.8 µM [inhibitor, single point]	
COc1ccc(OC)c(-n2nnnc2SCC(=O)N2CCN(C(=O)c3ccco3)CC2)c1	active: 70.8 µM	
CCOc1ccc(-c2cc(C(=O)NCC3CCCO3)c3ccccc3n2)cc1 (stereo not given)		inactive: -8.71%
N#C/C(=C\c1ccccc1OCc1ccc(C(=O)O)cc1)C(=O)Nc1ccc(O)cc1	inconclusive: 35.5 µM [inhibitor, single point]	
COc1ccc(C2C(C#N)=C(N)Oc3n[nH]c(C)c32)cc1Cn1nnc2ccccc21 (stereo not given)	inconclusive: 100 µM [inhibitor, single point]	
O=[N+]([O-])c1cccnc1N1CCC(c2cc(-c3ccc(Cl)cc3Cl)n[nH]2)CC1		inactive: -3.16%
Cc1ccsc1C(=O)OCC(=O)Nc1c(Cl)cccc1C(F)(F)F	inconclusive: 100 µM [inhibitor, single point]	
COc1cc2c(C)c3c4c(cc(OC)c(OC)c4c2cc1OC)CCN3C	inconclusive: 31.6 µM [inhibitor, single point]	
O=C(CCNC(=O)c1ccc(Br)cc1)NNC(=O)c1ccccc1O	inconclusive: 89.1 µM [inhibitor, single point]	
Cc1ccc(-n2c3nc(=O)[nH]c(=O)c-3cc3cc([N+](=O)[O-])ccc32)cc1	inconclusive: 70.8 µM [inhibitor, partial curve]	
O=C(/C=C/c1ccc(OCCCF)cc1)NCc1ccc(Cl)cc1		inactive: 10.5%
Clc1cnc(N/N=C/c2cccs2)c(Cl)c1		inactive: -1.14%
Cn1cc(C(=O)N/N=C/c2cccc([N+](=O)[O-])c2)c2ccccc21		inactive: 10.9%
CCCN(Cc1cc2cccc(C)c2[nH]c1=O)C(=O)c1cccc(Cl)c1		inactive: 0.332%
COc1ccc(/C=N/NC(=O)Nc2cccc3nsnc23)cc1	inconclusive: 79.4 µM [inhibitor, partial curve, poor fit]	
O=C(c1ccc(N2CCOCC2)cc1)N1CCCC(Nc2ccccc2)C1 (stereo not given)	inconclusive: 35.5 µM [inhibitor, single point]	
Cc1ccc(CN(C)C(=O)COC(=O)CSc2ccc([N+](=O)[O-])cc2)cc1	inconclusive: 79.4 µM [inhibitor, single point]	
